Our source for the binding values is publication PMC7667687.

Chains of the proteins cited; added tags and fusions are not shown. Residues count along the entry.
UniProt Q9NZQ7, residues 19-290: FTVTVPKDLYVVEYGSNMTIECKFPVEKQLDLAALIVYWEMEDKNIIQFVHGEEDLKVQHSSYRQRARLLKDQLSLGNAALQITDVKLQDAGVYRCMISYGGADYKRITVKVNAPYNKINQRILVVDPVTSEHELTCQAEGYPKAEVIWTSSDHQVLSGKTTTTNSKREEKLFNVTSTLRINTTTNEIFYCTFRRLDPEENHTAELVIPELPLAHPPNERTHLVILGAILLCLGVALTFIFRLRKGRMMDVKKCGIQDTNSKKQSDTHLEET

Results are given in words; binding and its absence hold for the method and conditions named. Binding seen in cells or lysates may run through a third protein. Some binding calls cover weakened binding; strength is not graded here.

The target of assay [1] is T1, CCCTC-binding factor (CTCF) (human (endogenous in SGC-7901)) (UniProt P49711).
T1 sequence: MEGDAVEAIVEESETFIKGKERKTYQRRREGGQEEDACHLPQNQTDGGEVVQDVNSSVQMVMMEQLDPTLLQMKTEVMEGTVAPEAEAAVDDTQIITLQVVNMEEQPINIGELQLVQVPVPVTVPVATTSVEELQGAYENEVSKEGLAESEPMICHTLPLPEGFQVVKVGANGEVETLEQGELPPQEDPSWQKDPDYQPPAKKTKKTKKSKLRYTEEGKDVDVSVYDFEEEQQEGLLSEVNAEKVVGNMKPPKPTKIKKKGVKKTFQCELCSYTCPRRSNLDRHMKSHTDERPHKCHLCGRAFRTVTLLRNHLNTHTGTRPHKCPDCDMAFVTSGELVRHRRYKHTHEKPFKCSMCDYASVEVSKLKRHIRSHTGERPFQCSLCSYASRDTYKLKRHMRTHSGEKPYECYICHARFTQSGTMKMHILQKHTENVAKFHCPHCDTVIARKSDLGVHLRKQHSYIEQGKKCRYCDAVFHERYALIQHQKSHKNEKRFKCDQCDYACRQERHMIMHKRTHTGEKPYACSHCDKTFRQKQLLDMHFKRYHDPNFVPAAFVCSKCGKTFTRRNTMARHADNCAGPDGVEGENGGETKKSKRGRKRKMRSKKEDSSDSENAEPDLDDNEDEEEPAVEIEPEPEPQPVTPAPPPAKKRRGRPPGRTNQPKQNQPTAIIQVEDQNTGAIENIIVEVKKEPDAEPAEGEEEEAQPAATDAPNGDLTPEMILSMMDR
Description: co-IP; SGC-7901 whole cell lysate (RIPA buffer); IP with anti-PD-L1 antibody or anti-CTCF antibody, protein A/G PLUS-Agarose, 4°C; detected by western blot. (In general: A western blot detects proteins with antibodies after separation by electrophoresis.)

In assay [2] the target is programmed cell death ligand 1 (PD-L1) (human (endogenous in SGC-7901)) (UniProt Q9NZQ7). The assay is described as above.

For the molecule “programmed cell death ligand 1 (PD-L1) (from UniProt Q9NZQ7 19-290)”, the binding result in assay [1] is reported as “binds”.

B1: CCCTC-binding factor (CTCF) (protein, UniProt P49711 1-727)
chain: MEGDAVEAIVEESETFIKGKERKTYQRRREGGQEEDACHLPQNQTDGGEVVQDVNSSVQMVMMEQLDPTLLQMKTEVMEGTVAPEAEAAVDDTQIITLQVVNMEEQPINIGELQLVQVPVPVTVPVATTSVEELQGAYENEVSKEGLAESEPMICHTLPLPEGFQVVKVGANGEVETLEQGELPPQEDPSWQKDPDYQPPAKKTKKTKKSKLRYTEEGKDVDVSVYDFEEEQQEGLLSEVNAEKVVGNMKPPKPTKIKKKGVKKTFQCELCSYTCPRRSNLDRHMKSHTDERPHKCHLCGRAFRTVTLLRNHLNTHTGTRPHKCPDCDMAFVTSGELVRHRRYKHTHEKPFKCSMCDYASVEVSKLKRHIRSHTGERPFQCSLCSYASRDTYKLKRHMRTHSGEKPYECYICHARFTQSGTMKMHILQKHTENVAKFHCPHCDTVIARKSDLGVHLRKQHSYIEQGKKCRYCDAVFHERYALIQHQKSHKNEKRFKCDQCDYACRQERHMIMHKRTHTGEKPYACSHCDKTFRQKQLLDMHFKRYHDPNFVPAAFVCSKCGKTFTRRNTMARHADNCAGPDGVEGENGGETKKSKRGRKRKMRSKKEDSSDSENAEPDLDDNEDEEEPAVEIEPEPEPQPVTPAPPPAKKRRGRPPGRTNQPKQNQPTAIIQVEDQNTGAIENIIVEVKKEPDAEPAEGEEEEAQPAATDAPNGDLTPEMILSMMDR
Turning to B1, in assay [2], the binding entry is on record as “binds”.
